Results as given in patent US8697356B2, “Single-molecule-format probe and utilization thereof” (National Institute of Advanced Industrial Science and …, priority 2008, dated 2014).
For at least one compound, name, drawing or mass did not settle the structure.

Tested on: cytosolic Ca^2+
Assay: Retention of Ca^2+ levels after wash-out, COS-7 cells carrying pCPG (Example 9)
Format: cell-based, African green monkey
Conditions: CPG; 20 minutes stimulation; thapsigargin or cyproheptadine added to 0.5 mM histamine or ATP; 2 μM ionomycin
Method: Retention of cytosolic calcium Ca^2+ levels in response to an external stimulus were monitored on the basis of the luminescence intensities from COS-7 cells carrying pCPG.
The cells were washed twice with PBS after ligand stimulation, and harvested by trypsinization and centrifugation. This wash-out terminates the external stimulation of ligands for elevating cytosolic Ca^2+ levels. The cells were resuspended with a 40 mL substrate buffer carrying coelenterazine, and then transferred to a test tube to determine the luminescence with a luminometer (Minilumat LB9506).

CN1CCC(=C2c3ccccc3C=Cc3ccccc32)CC1 [cyproheptadine]
cytosolic Ca^2+ levels (luminescence) after wash-out: blocked the elevation
